Consider 5 molecules from paper doi:10.1101/2020.05.28.122184.

Protein sequences, listed by entry. Tags and fused reporters are not part of them. Lines headed by an entry give the natural chain unless they say otherwise; changes in a name come on top. Residues count along the entry.
UniProt P48432, whole entry: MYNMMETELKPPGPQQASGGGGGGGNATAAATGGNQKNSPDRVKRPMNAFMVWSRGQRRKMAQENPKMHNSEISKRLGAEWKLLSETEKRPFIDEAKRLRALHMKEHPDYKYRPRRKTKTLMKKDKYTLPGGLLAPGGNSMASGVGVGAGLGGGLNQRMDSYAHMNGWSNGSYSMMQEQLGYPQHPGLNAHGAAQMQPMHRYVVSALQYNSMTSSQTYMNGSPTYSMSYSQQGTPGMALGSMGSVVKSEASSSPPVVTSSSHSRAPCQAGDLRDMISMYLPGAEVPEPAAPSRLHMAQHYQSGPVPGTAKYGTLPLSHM
UniProt Q01860, whole entry: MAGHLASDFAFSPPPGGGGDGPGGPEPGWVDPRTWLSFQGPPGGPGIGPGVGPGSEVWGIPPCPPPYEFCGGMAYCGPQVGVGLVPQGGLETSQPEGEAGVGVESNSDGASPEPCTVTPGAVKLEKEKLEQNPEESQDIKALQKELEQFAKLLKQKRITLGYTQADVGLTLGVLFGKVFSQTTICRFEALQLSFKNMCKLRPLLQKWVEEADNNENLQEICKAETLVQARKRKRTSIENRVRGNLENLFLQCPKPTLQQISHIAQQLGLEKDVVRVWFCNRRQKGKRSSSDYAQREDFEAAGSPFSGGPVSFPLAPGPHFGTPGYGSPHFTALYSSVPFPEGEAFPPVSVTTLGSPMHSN
UniProt P48431, whole entry: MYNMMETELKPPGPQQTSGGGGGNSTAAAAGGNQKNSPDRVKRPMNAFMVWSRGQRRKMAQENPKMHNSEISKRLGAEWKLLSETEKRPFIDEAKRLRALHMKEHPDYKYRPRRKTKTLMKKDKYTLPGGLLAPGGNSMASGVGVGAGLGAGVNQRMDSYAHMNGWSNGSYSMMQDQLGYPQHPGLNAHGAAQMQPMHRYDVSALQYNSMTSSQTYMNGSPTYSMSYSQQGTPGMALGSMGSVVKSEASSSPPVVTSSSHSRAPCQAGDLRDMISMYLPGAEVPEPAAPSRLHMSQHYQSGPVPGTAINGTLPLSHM
UniProt Q8NE71, whole entry: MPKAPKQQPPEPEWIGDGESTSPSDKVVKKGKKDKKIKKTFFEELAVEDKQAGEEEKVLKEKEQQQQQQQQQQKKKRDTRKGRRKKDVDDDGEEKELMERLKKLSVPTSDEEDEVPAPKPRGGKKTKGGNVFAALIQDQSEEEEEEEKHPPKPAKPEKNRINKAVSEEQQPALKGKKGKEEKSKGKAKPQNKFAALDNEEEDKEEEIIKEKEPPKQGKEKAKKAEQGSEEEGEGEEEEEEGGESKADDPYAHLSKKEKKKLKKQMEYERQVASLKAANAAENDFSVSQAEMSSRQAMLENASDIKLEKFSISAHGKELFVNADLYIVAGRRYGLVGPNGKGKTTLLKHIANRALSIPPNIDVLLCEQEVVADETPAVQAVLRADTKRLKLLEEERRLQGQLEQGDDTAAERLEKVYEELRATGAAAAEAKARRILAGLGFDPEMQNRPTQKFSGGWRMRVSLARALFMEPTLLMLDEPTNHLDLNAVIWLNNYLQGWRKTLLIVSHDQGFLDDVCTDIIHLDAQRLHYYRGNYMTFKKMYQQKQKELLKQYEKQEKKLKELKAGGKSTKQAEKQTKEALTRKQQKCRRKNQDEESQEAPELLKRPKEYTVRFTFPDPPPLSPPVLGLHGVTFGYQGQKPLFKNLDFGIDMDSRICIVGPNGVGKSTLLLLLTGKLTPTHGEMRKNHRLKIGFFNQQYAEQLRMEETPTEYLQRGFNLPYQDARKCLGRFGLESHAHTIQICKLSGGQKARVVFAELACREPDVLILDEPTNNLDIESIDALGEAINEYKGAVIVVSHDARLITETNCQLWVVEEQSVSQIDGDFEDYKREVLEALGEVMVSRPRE
UniProt Q8NE71, 303-845, stated change not applied: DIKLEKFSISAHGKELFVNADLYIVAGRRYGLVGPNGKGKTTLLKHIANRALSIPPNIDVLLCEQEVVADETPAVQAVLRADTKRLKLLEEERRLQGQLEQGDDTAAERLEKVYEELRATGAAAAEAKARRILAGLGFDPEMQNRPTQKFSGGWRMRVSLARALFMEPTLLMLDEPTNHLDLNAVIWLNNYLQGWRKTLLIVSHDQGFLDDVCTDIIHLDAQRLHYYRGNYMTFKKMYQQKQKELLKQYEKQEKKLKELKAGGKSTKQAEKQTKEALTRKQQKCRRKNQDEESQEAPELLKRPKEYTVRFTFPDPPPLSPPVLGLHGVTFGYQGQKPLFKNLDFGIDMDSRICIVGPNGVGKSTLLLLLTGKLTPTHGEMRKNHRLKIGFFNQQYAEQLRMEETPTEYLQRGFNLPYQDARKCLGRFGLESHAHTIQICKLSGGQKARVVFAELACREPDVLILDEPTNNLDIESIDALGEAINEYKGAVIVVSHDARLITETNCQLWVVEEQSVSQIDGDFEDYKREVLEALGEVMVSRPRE
UniProt Q6P542, 2-837: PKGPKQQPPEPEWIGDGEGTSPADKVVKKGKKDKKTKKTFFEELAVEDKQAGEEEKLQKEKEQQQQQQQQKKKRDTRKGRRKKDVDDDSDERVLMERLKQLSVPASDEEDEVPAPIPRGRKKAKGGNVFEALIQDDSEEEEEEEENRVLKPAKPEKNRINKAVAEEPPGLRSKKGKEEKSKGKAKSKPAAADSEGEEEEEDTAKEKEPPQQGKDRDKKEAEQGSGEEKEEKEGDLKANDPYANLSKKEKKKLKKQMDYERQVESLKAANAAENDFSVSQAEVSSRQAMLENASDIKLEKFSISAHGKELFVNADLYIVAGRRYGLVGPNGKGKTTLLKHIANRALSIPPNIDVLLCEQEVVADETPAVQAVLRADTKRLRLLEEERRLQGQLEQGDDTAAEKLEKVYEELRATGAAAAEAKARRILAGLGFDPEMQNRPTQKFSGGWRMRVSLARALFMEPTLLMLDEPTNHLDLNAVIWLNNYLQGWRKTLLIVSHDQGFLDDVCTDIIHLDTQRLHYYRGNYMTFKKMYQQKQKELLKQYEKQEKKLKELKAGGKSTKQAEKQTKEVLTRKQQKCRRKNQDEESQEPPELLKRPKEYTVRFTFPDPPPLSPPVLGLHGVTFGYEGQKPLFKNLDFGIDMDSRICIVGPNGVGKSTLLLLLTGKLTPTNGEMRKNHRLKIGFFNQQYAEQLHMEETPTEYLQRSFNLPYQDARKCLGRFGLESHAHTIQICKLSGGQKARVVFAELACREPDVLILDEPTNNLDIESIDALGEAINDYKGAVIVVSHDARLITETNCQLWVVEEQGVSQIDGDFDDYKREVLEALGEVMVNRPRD
UniProt Q01831, whole entry: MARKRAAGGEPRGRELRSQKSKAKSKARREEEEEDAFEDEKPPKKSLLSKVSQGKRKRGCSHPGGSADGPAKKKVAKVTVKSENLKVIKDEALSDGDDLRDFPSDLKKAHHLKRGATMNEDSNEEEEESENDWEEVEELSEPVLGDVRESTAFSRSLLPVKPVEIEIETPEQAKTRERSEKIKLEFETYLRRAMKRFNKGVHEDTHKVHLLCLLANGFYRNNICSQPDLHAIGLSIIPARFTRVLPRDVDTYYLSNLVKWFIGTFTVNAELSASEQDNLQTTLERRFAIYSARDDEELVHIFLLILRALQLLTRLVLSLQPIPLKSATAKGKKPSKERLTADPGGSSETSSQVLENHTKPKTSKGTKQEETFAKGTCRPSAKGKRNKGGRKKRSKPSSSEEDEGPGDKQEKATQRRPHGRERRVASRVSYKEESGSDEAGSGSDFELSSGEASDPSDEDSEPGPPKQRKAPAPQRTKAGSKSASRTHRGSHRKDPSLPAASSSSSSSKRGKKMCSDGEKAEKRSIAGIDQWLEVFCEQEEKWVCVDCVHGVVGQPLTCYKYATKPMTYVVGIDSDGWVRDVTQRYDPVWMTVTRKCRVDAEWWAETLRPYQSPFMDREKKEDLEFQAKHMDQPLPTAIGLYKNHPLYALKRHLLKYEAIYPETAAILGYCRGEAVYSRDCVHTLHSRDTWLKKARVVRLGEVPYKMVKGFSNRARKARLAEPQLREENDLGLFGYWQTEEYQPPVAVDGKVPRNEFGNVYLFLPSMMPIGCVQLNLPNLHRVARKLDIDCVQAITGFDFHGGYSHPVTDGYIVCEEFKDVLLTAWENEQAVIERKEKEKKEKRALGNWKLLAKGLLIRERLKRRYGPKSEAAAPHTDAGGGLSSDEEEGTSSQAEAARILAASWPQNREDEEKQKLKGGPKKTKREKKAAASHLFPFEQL

Results are given in words; binding and its absence hold for the method and conditions named. In cells and extracts the contact can be indirect. Some results given as binding are weak or reduced against the parent protein; the word gives no strength. For some assays here: Tags and fused reporters may be left off the sequences shown.

The target of test [1] is SOX2 (endogenous, mouse ES cells) (mouse (endogenous in D3 ES cells)) (UniProt P48432). Put plainly: co-IP.
The next test concerns the target FLAG-tagged OCT4 (human) (UniProt Q01860). Put plainly: co-IP.
A further test addresses FLAG-tagged SOX2 (human) (UniProt P48431). Put plainly: co-IP.
Test [2] concerns the target HA-tagged SOX2 (SOX2-HA) (human) (UniProt P48431). Put plainly: co-IP.
For test [3], the target named is T1, GST-SREBP1a (1-50) (human) (UniProt P36956).
T1 sequence: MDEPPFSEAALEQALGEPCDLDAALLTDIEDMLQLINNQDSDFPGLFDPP
Put plainly: pull-down.

Test [4] addresses GST-ABCF1 (1-302) (human) (UniProt Q8NE71). Put plainly: pull-down.
In test [5] the target is T2, GST-GCN20 (1-197) (S. cerevisiae) (UniProt P43535).
T2 sequence: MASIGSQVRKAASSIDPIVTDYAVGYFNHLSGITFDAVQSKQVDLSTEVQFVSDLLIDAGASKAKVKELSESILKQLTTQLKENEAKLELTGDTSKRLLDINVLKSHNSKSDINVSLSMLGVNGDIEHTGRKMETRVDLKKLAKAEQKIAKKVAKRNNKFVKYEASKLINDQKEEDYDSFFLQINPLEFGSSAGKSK
Put plainly: pull-down.

As for “V5-ABCF1 (endogenously V5-tagged mouse ABCF1, knock-in) (from UniProt Q6P542 2-837)”, the binding entry in test [1] was “binds”.
As for “V5-tagged full-length human ABCF1 (from UniProt Q8NE71 1-845)”, the binding result is reported as “no binding” with FLAG-tagged OCT4 (human), “binds” with FLAG-tagged SOX2 (human) and “binds” in test [2].
On to “V5-tagged IDR-truncated human ABCF1 (Δ302) (from UniProt Q8NE71 303-845) (domain or fragment)”, for which the binding entry in test [2] is “no binding”.
On to XPC (from UniProt Q01831 1-940), for which the binding result in test [3] is reported as “no binding”; in test [4], “binds”; in test [5], “no binding”.

B1: DKC1 (protein, UniProt O60832 1-514)
chain: MADAEVIILPKKHKKKKERKSLPEEDVAEIQHAEEFLIKPESKVAKLDTSQWPLLLKNFDKLNVRTTHYTPLACGSNPLKREIGDYIRTGFINLDKPSNPSSHEVVAWIRRILRVEKTGHSGTLDPKVTGCLIVCIERATRLVKSQQSAGKEYVGIVRLHNAIEGGTQLSRALETLTGALFQRPPLIAAVKRQLRVRTIYESKMIEYDPERRLGIFWVSCEAGTYIRTLCVHLGLLLGVGGQMQELRRVRSGVMSEKDHMVTMHDVLDAQWLYDNHKDESYLRRVVYPLEKLLTSHKRLVMKDSAVNAICYGAKIMLPGVLRYEDGIEVNQEIVVITTKGEAICMAIALMTTAVISTCDHGIVAKIKRVIMERDTYPRKWGLGPKASQKKLMIKQGLLDKHGKPTDSTPATWKQEYVDYSESAKKEVVAEVVKAPQVVAEAAKTAKRKRESESESDETPPAAPQLIKKEKKKSKKDKKAKAGLESGAEPGDGDSDTTKKKKKKKKAKEVELVSE
For the molecule B1, the binding result in test [3] is “no binding”; in test [4], “binds”; in test [5], “no binding”.
